In PubChem BioAssay AID1347423 (Functional Genomics Laboratory (NCATS/FGL), 2020) one finds z-score data, which are given here for 104 sequences.

Among all 52,000 sequences or so, about 210 (0.4%) were called active.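 The calls were made as follows: active = gene whose silencing raises cell survival under the drug, median off-target-corrected z-score across its silencing RNAs 2 or more; inactive = the rest.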 Some of the results follow.

A short description of the experiment: Resistance to Poly (ADP-Ribose) Polymerase inhibitor: Gene Identification via Genome-wide siRNA Screen. As to conditions: mouse BRCA2 R2336H ES cells, olaparib, CellTiter-Glo viability; stronger effect = higher value. The essentials: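 Genome-wide siRNA screen (3 siRNAs/gene, 20 nM) in mouse ES cells carrying hypomorphic BRCA2 R2336H; olaparib 500 nM added 48 h post-transfection, CellTiter-Glo viability 72 h later. Normalized to plate-median negative control; MAD z-scores, gene median, seed-adjusted.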
Background: ATP-based viability assays read luminescence as a measure of living cells.
Turning to GGAAGCAAGGAAAAUCAUGTT against Lpo, the z-score is inactive: 2.58.

Take “GGACCAACAAUCCAGGAUUTT against 5830415L20Rik”: the z-score was inactive: -1.44.

On to GCAAAGACCACACCAUACATT against Gm414, for which the z-score is inactive: 0.803.

On to “GGGUCCACAUACAAUAAAGTT against 1500005A01Rik”, for which the z-score is inactive: -0.00454.

As to GGAGAUCAGCUGUCUAAUGTT against Als2cr4, the z-score is inactive: -2.38.

“GGGACUCGAAGCACUGUGUTT against 2810452K22Rik”: the z-score was inactive: -0.994.

Turning to GGAUAACCUUGAGUAGGUGTT against Olfr906, the z-score is inactive: 0.938.

As to GGAUUUUGUGGAUCCAUGGTT against Wars, the z-score was inactive: 0.793.

As to GGCCUCCUAACAAUUCAGCTT against Foxp1, the z-score was inactive: 0.00103.

As to GGACACCAUGUGCUAGAGCTT against L1cam, the z-score is inactive: -0.115.

Take GGAUGCAUUGCUGCUGUGGTT against Spnb2: the z-score is inactive: -1.1.

Consider GGAAACUUGUUGAAGAGAUTT against Ptprz1, for which the z-score was inactive: 1.19.

On to GCAGAAUUGAGUCACCCAATT against Sp1, for which the z-score is inactive: -2.18.

Take GGGUUAGUAAUGAAUGAUGTT against Arpc5l: the z-score was inactive: 0.904.

Take GCUUCGAGAGUCAACUAUGTT against Mds1: the z-score is inactive: 1.39.

GGAAGAUGAAUCAUUACCATT against Tmem32: the z-score is inactive: -0.983.

For the sequence GGAUGAGAACAUUGUGAUUTT against Pask, the z-score was inactive: 0.264.

For GGAUACCACUUUAGAACCATT against Fgfr2, the z-score is inactive: 0.299.

For CCAUGGUUCUGAUCAAUUUTT against Cyp2j11, the z-score is inactive: 1.72.

“GGAAGAGCCAGUGGUAUAATT against A330015D16Rik”: the z-score was inactive: -1.6.

With GGAAUGUAUGUCUCAGCUCTT against Olfr45, the z-score is inactive: -0.245.

On to GGCCUUUGACUUAUUCGAUTT against Cetn4, for which the z-score was inactive: -0.322.

On to GGCAUCAAAGGAGAUAAGGTT against Col9a2, for which the z-score is inactive: 0.419.

On to “CCAUCUAUGGACCCGUAACTT against E330017A01Rik”, for which the z-score is inactive: 1.69.

Take GCUUGUGAGUGGAACUUUCTT against Mcm6: the z-score is inactive: -1.33.

Take GGACUGAUGAUCAAGCAAATT against Col8a2: the z-score is inactive: 0.58.

As for GGACGUGACUCUCAUCAUCTT against Atp2b3, the z-score was inactive: -0.652.

With GGACAUGAAACUCUGCACCTT against Drd2, the z-score is inactive: 1.33.

For UUUUAGGUUCCCUGGAAUGTT against Mrgprb5, the z-score was inactive: 0.0374.

Take “GGAAUUGCCAAUCAAUGAUTT against A530099J19Rik”: the z-score is inactive: 0.959.

Consider GGACUACAUCAACCUGGAUTT against Mlf2, for which the z-score was inactive: -1.16.

As to GGCCUUGCUUUCAUAAAGUTT against Mrpl49, the z-score was inactive: -0.329.

With GGAGGAUGGGCAAGAAUAUTT against Eif1ay, the z-score is inactive: -1.97.

As to GGUGUCUUUUUUUACAAGATT against Tnfsf11, the z-score was inactive: -0.0509.

On to GCGACUUCGGAAGAUCUAUTT against Srl, for which the z-score was inactive: 1.55.

With GGAUCAAUGAAAAUGAGAATT against Fzr1, the z-score was inactive: -1.74.

For the sequence GCUCUUCGAGUAAAUCACATT against Zfp108, the z-score is inactive: -0.575.

Consider GGAAUGCUUCAAAAGGGCATT against Fkbp1b, for which the z-score is inactive: 0.0255.

As to GCUCUGUCCAAGCACUUUATT against P2rx4, the z-score was inactive: -0.927.

As to GCUUAGAGCGAUUCUAUGATT against Brunol4, the z-score is inactive: 0.227.

Consider GGUAAACAUGAUAUUUGGGTT against Olfr670, for which the z-score was inactive: 0.0219.

Consider “GGAAGUGAGAAGAUGGAUATT against C630035N08Rik”, for which the z-score was inactive: -0.797.

As for “GGCUAAAGUCAUCUUCUGGTT against E230031K19”, the z-score was inactive: 0.4.

Take GCUGAAAAAGUGGAAAUCGTT against Psma4: the z-score was inactive: -3.09.

As for GGCCAGAGGUGCAAUAUUGTT against Notch2, the z-score is inactive: 0.114.

Turning to GGGAAUGGGUCUUGUAAACTT against Ppat, the z-score is inactive: 0.54.

Turning to “GGUGGCUGUAAAGAAGUUATT against B230120H23Rik”, the z-score was inactive: 0.99.

For the sequence GGAGCGCAGACAACAGAUUTT against Zfp95, the z-score was inactive: -1.88.

With GGCCCAACAUAUAUCAAAUTT against Adck2, the z-score is inactive: -0.359.

Turning to GGUAUAUGAAAGAUUGUCATT against Vps26, the z-score was inactive: 0.163.

Turning to GGACUUAACUCGUGGAUCCTT against Fancc, the z-score is inactive: -1.47.

As for GCACUGGACUUAGGAUGGUTT against Ankrd22, the z-score is inactive: -0.717.

Regarding GGGUGUUUACUUUAUAGAATT against AU022726, the z-score is inactive: 0.601.

For GCUUUCGCCAAUAAAAAAGTT against Slc13a2, the z-score is inactive: -0.669.

GGAUCUGUUUCACUGUGGCTT against Corin: the z-score is inactive: 0.19.

As to CCGCUAUAUCACGGAGCAGTT against En1, the z-score is inactive: -0.266.

In the case of GGAGGAACAGAGUUUGCACTT against Olfr642, the z-score is inactive: 1.83.

Consider GGUCCUCAGAUUUUGGGACTT against Sorcs2, for which the z-score was inactive: -0.783.

Regarding GCUACGUGUACCUGGAGUGTT against Cpeb1, the z-score is inactive: 0.0154.

As for “GGAAAAAUCCAAGAAGCAATT against 5730454B08Rik”, the z-score was inactive: -0.909.

Consider GGUCAACCUCAAAGUCUUUTT against Il17, for which the z-score is inactive: -1.19.

For the sequence GGGAUGCAUCAAAAUACAATT against Pdk3, the z-score is inactive: -0.364.

On to CCUACUUUGGACUCUUUCATT against Tnfsf12, for which the z-score is inactive: -0.979.

With “CGAACAGAUGCUUAAUGUCTT against 4930542G03Rik”, the z-score is inactive: 0.895.

Consider GGCAGAAGAAAUCUUAAAUTT against Dnali1, for which the z-score is inactive: 0.593.

On to GGUUUUAGGGUUUUUAACATT against Edg4, for which the z-score is inactive: 0.299.

Regarding GGGAUUGCUCACAUCUCUGTT against SIRP-beta, the z-score is inactive: -0.441.

On to GGACAGACGUGCACUUAGATT against Garnl3, for which the z-score was inactive: -1.07.

Turning to GCAGACGAAUAAAUAGCUGTT against Capza1, the z-score was inactive: 1.21.

On to CCUGAUCCUGACUAACCGUTT against Htr2b, for which the z-score is inactive: 0.13.

As to “GCUCACUAACUUUUACAAGTT against 1700001C02Rik”, the z-score is inactive: 0.374.

Consider GACUAAGCAGUGGAAGAGCTT against Krtap21-1, for which the z-score is inactive: -0.359.

“GCUGAUCAGAGACCAUUACTT against 2610528E23Rik”: the z-score was inactive: -0.319.

Take GCUCCUCAUGAUAUUGGCCTT against Nagk: the z-score is inactive: 0.324.

For the sequence CCCUCUCCCUUCAAUGUGGTT against Gif, the z-score was inactive: -0.382.

Consider GGCCUUCCUCUUCUGCUUATT against Csf3r, for which the z-score was inactive: -0.772.

In the case of GGCCAACCCAGAGAGUACUTT against Hrpt2, the z-score was inactive: -1.07.

In the case of “GGUAGAGAAUUGAAACCUATT against 2410127E18Rik”, the z-score was inactive: 1.73.

As for GGAGUUUCAAAGUGCGAGUTT against Rin1, the z-score was inactive: 0.723.

Take GGCUCAAAUUCGAAAACACTT against Zfp235: the z-score is inactive: 1.9.

With GCAUUGGGCAAAUGUCUGGTT against Olfr933, the z-score was inactive: 1.26.

In the case of AUAGUGGAACCCUUUGUACTT against Olfr1195, the z-score was inactive: 0.509.

Consider GGCCGUUAUUAAAUUCAUATT against Twsg1, for which the z-score was inactive: 0.585.

For GGGAACACAAAACCAUUUCTT against Olfr1299, the z-score was inactive: -1.71.

Take GGAAUACGACAGAACUCCATT against Extl1: the z-score was inactive: -0.291.

For “GGCAGCUUGUAAAAAUCCATT against 2810002O09Rik”, the z-score was inactive: 1.3.

With CCAUACGUUUUUCAGAAUGTT against Epb4.1l4a, the z-score was inactive: 0.999.

With GGUUUCGAACUGAUGAAGCTT against Sdccag1, the z-score is inactive: 0.0253.

As for GGAAACCUGCAUCCUAUGATT against Olfr195, the z-score was inactive: -2.84.

For GGAGGUUUUACUCAAACAUTT against Sec14l2, the z-score was inactive: 1.08.

Take CGACAUUUGUGUUAACCAUTT against Gprc5c: the z-score is inactive: -1.

For the sequence GGCCAUCAAAGAAACUAGCTT against Tas2r139, the z-score is inactive: 0.0695.

In the case of “GGAUAUCCUUACAAGGACCTT against B230339H12Rik”, the z-score was inactive: 0.949.

For the sequence GGUCAAUGAACAGCACCGGTT against Igfbp2, the z-score is inactive: 0.152.

With GGGAUGACUUUAAUAUCAATT against Pscd3, the z-score is inactive: -1.9e-10.

With CGGAAAACAAUAUCGUGAATT against H2-Ke2, the z-score is inactive: -0.198.

Consider GGCACUGUGUGUCAGACAATT against Nt5c2l1, for which the z-score is inactive: -0.249.

Consider GGUGAACAAAGGAAAGAAUTT against Trpv2, for which the z-score was inactive: -0.475.

Consider GGAAAAGAGCUCGUCUCAGTT against Il15, for which the z-score was inactive: 0.67.

For GCUUGUUCGAGCAAGCAAGTT against Ccnt1, the z-score is inactive: -0.474.

Consider GCUAAGUAAUCAAUUGCUATT against Bhlhb2, for which the z-score was inactive: 1.35.

On to “CCUGUUUCUAGAGCUGGAGTT against A630001O12Rik”, for which the z-score is inactive: 1.

For the sequence AAAACAACCUAUUCAAGGATT against Ngfg, the z-score was inactive: 0.642.

For “CCACCAUGUUUUAUUCCAATT against 2010001H14Rik”, the z-score was inactive: -1.57.
